In PubChem BioAssay AID248 (DTP/NCI, 2004):
The list shows only some results of the screen, not a fair sample: it gathers tests that were run many times, whatever their T/C, doses with no T/C, and many T/C values between a quarter and a half above the control. Other doses and runs of a compound stand elsewhere. T/C gives the treated animals as a percentage of the vehicle group. Some doses have a count of surviving animals in place of a T/C: the source holds a T/C of zero for them, seemingly a mark for toxic or unscored doses. Some survivor counts are full or nearly so, which does not show that the dose was tolerated: the source hardly ever lists a survival T/C far under the control, and the zero likely stands for such cases as well. Survivors were counted at the toxicity check, usually on the fifth day, unless a day is given; later deaths do not show. Schedules are NCI's codes, read here as Q, the interval in days (D) or hours (H), X, the number of doses. Some doses were run more than once; their values stand side by side, smallest first. Some schedule codes hold Z or #, which are not explained here. Where survival is the endpoint, the PubChem record calls one and a half times the control and up active, and a quarter to a half above the control has no call in these data; cut-offs in other NCI protocols can differ.

System: L1210 leukemia ip in BDF1 mice, survival T/C
Experiment: NCI In Vivo Anticancer Drug Screen. Data for tumor model L1210 Leukemia (intraperitoneal) in B6D2F1 (BDF1) mice
Conditions: T/C endpoint: mean survival time, higher T/C = longer survival
[1] = dose: 100.0 mg/kg/injection, schedule: Q01DX001 (ip), vehicle: saline
[2] = dose: 200.0 mg/kg/injection, schedule: Q01DX001 (ip), vehicle: saline
[3] = dose: 400.0 mg/kg/injection, schedule: Q01DX001 (ip), vehicle: saline
[4] = dose: 400.0 mg/kg/injection, schedule: Q04DX003 (ip), vehicle: carboxymethylcellulose (CMC)
[5] = dose: 200.0 mg/kg/injection, schedule: Q01DX009 (ip), vehicle: saline
[6] = dose: 400.0 mg/kg/injection, schedule: Q01DX009 (ip), vehicle: saline
[7] = dose: 400.0 mg/kg/injection, schedule: Q01DX009 (ip), vehicle: Klucel (hydroxypropylcellulose) (HPC)
[8] = dose: 200.0 mg/kg/injection, schedule: Q01DX009 (ip), vehicle: Klucel (hydroxypropylcellulose) (HPC)
[9] = dose: 200.0 mg/kg/injection, schedule: Q04DX003 (ip), vehicle: saline with Tween-80
[10] = dose: 400.0 mg/kg/injection, schedule: Q04DX003 (ip), vehicle: saline with Tween-80
[11] = dose: 400.0 mg/kg/injection, schedule: Q04DX002 (ip), vehicle: Klucel (hydroxypropylcellulose) (HPC)
[12] = dose: 40.0 mg/kg/injection, schedule: Q01DX001 (ip), vehicle: saline

C#CC[P+](c1ccccc1)(c1ccccc1)c1ccccc1
survivor count (dose: 50.0 mg/kg/injection, schedule: Q01DX001 (ip), vehicle: saline): 3 of 6 | survivor count [1]: 0 of 6 | survivor count [2]: 0 of 6 | survivor count [3]: 0 of 6

O=C(O)CCSSc1ccc([N+](=O)[O-])cc1[N+](=O)[O-]
survivor count (dose: 50.0 mg/kg/injection, schedule: Q01DX009 (ip), vehicle: Klucel (hydroxypropylcellulose) (HPC)): 5 of 6

CSc1nnn(C(C)(C)C)n1
survivor count (dose: 400.0 mg/kg/injection, schedule: Q01DX001 (ip), vehicle: acetone): 6 of 6

CCCOC(=O)c1ccc(OC(=O)NC)cc1
survivor count (dose: 400.0 mg/kg/injection, schedule: Q01DX009 (ip), vehicle: carboxymethylcellulose (CMC)): 1 of 6 and 3 of 3 | survivor count [4]: 3 of 6

CN1CCC=Cc2ccccc21
survivor count [5]: 5 of 6 | survivor count [6]: 0 of 6

CC(=O)OI(OC(C)=O)c1ccc(-c2ccccc2)cc1
survivor count [7]: 6 of 6

COc1cc2c(cc1OC)C(CN)C2 (stereo not drawn)
survivor count (dose: 400.0 mg/kg/injection, schedule: Q04DX003 (ip), vehicle: saline): 0 of 6

CCOC(=O)C(C(=O)OCC)N(CC)CC
survivor count [8]: 5 of 6

NC(N)=N/N=C\c1ccc(OCc2ccccc2)cc1
survivor count (dose: 60.0 mg/kg/injection, schedule: Q01DX Z (ip), vehicle: saline): 1 of 6 | survivor count (dose: 120.0 mg/kg/injection, schedule: Q01DX Z (ip), vehicle: saline): 0 of 6

c1ccc2cc3c(ccc4cccc[n+]43)cc2c1
survivor count [1]: 0 of 6 | survivor count [2]: 0 of 6 | survivor count [3]: 0 of 6

CCCNC(C)C(=O)c1ccccc1 (stereo not drawn)
survivor count [5]: 0 of 6 | survivor count [6]: 0 of 6

O=c1[nH]c2ccccc2nc1CBr
survivor count (dose: 100.0 mg/kg/injection, schedule: Q04DX003 (ip), vehicle: saline with Tween-80): 0 of 6 | survivor count [9]: 0 of 6 | survivor count [10]: 0 of 6

Cc1c(Br)c(C)c(Br)c(OCC(=O)O)c1Br
survivor count [11]: 0 of 3

NC(CSSCC(N)=NC1CCCCC1)=NC1CCCCC1
survivor count (dose: 25.0 mg/kg/injection, schedule: Q01DX009 (ip), vehicle: carboxymethylcellulose (CMC)): 1 of 6 | survivor count (dose: 50.0 mg/kg/injection, schedule: Q01DX001 (ip), vehicle: saline with Tween-80): 2 of 6 | survivor count (dose: 50.0 mg/kg/injection, schedule: Q01DX009 (ip), vehicle: carboxymethylcellulose (CMC)): 0 of 3 and 3 of 6 | survivor count (dose: 50.0 mg/kg/injection, schedule: Q04DX002 (ip), vehicle: carboxymethylcellulose (CMC)): 1 of 3 | survivor count (dose: 100.0 mg/kg/injection, schedule: Q04DX002 (ip), vehicle: carboxymethylcellulose (CMC)): 0 of 3, 2 of 6, 5 of 6 | survivor count (dose: 200.0 mg/kg/injection, schedule: Q04DX002 (ip), vehicle: carboxymethylcellulose (CMC)): 0 of 3 and 4 of 6 | survivor count (dose: 400.0 mg/kg/injection, schedule: Q04DX002 (ip), vehicle: carboxymethylcellulose (CMC)): 0 of 3 and 0 of 6 | survivor count [4]: 0 of 6

OC1c2ccccc2CC1N1CCCCC1 (stereo not drawn)
survivor count (dose: 200.0 mg/kg/injection, schedule: Q01DX001 (ip), vehicle: saline with Tween-80): 2 of 6 | survivor count (dose: 400.0 mg/kg/injection, schedule: Q01DX001 (ip), vehicle: saline with Tween-80): 0 of 6

CCC(=O)c1c(C)[nH]c(C)c1C
survivor count (dose: 100.0 mg/kg/injection, schedule: Q04DX003 (ip), vehicle: Klucel (hydroxypropylcellulose) (HPC)): 6 of 6 | survivor count (dose: 200.0 mg/kg/injection, schedule: Q04DX003 (ip), vehicle: Klucel (hydroxypropylcellulose) (HPC)): 1 of 6 | survivor count (dose: 400.0 mg/kg/injection, schedule: Q04DX003 (ip), vehicle: Klucel (hydroxypropylcellulose) (HPC)): 0 of 6

CCOc1nc(N)nc(N)c1-c1ccc(Cl)cc1
survivor count (dose: 400.0 mg/kg/injection, schedule: Q04DX002 (ip), vehicle: saline with Tween-80): 0 of 3

O=C(OCC1CC=CC1)C1CC=CC1
survivor count (dose: 50.0 mg/kg/injection, schedule: Q01DX009 (ip), vehicle: saline with Tween-80): 6 of 6 | survivor count (dose: 100.0 mg/kg/injection, schedule: Q01DX009 (ip), vehicle: saline with Tween-80): 5 of 6 | survivor count (dose: 200.0 mg/kg/injection, schedule: Q01DX009 (ip), vehicle: saline with Tween-80): 1 of 6 | survivor count (dose: 400.0 mg/kg/injection, schedule: Q04DX003 (ip), vehicle: saline sonified): 0 of 6

O=C(O)/C(=C\c1ccccc1[N+](=O)[O-])c1cccc(Cl)c1
survivor count [7]: 0 of 6

COC(=O)CCC(=O)CCC(C)C
survivor count [9]: 0 of 6

CCCCc1ccc(C(=O)O)nc1.[Cu+2]
survivor count [12]: 2 of 6 | survivor count (dose: 80.0 mg/kg/injection, schedule: Q01DX001 (ip), vehicle: saline): 1 of 6

CC(C)Oc1c(N(C)CCO)c2cc(Cl)ccc2oc1=O
survivor count [10]: 6 of 6

CC1CC1C(=O)Cl (stereo not drawn)
survivor count [5]: 1 of 3

[N-]=Cc1c(O)cccc1[N+](=O)[O-].[N-]=Cc1cc([N+](=O)[O-])ccc1O.[Ni+2]
survivor count [10]: 4 of 6

N=c1ccn(C2OC(CO)C(O)C2O)c(=O)n1O (stereo not drawn)
T/C (dose: 20.0 mg/kg/injection, schedule: Q01DX009 (ip), vehicle: saline): 129 % of control | T/C (dose: 40.0 mg/kg/injection, schedule: Q01DX009 (ip), vehicle: saline): 132 % of control

O=C1c2ccccc2C(C(O)(C(F)(F)F)C(F)(F)F)c2ccccc21
survivor count [10]: 3 of 6

COc1ccc(OC)c(NC(=O)CCl)c1
survivor count [8]: 3 of 6 | survivor count (dose: 200.0 mg/kg/injection, schedule: Q04DX002 (ip), vehicle: Klucel (hydroxypropylcellulose) (HPC)): 1 of 3 | survivor count [7]: 0 of 6 | survivor count [11]: 0 of 3

CC(C)c1ccc(NC(=O)Nc2cc(Cl)ccc2Cl)cc1
survivor count (dose: 100.0 mg/kg/injection, schedule: Q04DX003 (ip), vehicle: gum acacia): 5 of 6 | survivor count (dose: 200.0 mg/kg/injection, schedule: Q01DX009 (ip), vehicle: gum acacia): 6 of 6

c1ccc2c(c1)CC1Sc3ccccc3N=C21 (stereo not drawn)
survivor count [10]: 1 of 6

CN(CC(=O)O)C(=O)c1ccccc1
survivor count (dose: 300.0 mg/kg/injection, schedule: Q01DX001 (ip), vehicle: saline): 1 of 6

C#CCCCCCCCCC(=O)NCC
survivor count [8]: 3 of 6

C=CCOC(=O)C(C)O (stereo not drawn)
survivor count [3]: 0 of 4

Nc1nc(N)c(N=Nc2ccc(S(=O)(=O)Nc3ccccn3)cc2)c(N)n1
survivor count [3]: 4 of 4

CC(=N/N=C(N)N)/C(C)=N/N=C(N)N
survivor count (dose: 480.0 mg/kg/injection, schedule: Q01DX005 (oral), vehicle: saline): 4 of 6

O=NN(CCCl)C(=O)NC1CCCC1
T/C (dose: 12.5 mg/kg/injection, schedule: Q01DX001 (ip), vehicle: saline): 127 % of control | T/C (dose: 26.0 mg/kg/injection, schedule: Q01DX001 (ip), vehicle: saline): 133 % of control | T/C [12]: 127 % of control | T/C (dose: 60.0 mg/kg/injection, schedule: Q01DX001 (ip), vehicle: saline): 128 % of control | survivor count (dose: 500.0 mg/kg/injection, schedule: Q01DX001 (ip), vehicle: saline): 4 of 6 | survivor count (dose: 600.0 mg/kg/injection, schedule: Q01DX001 (ip), vehicle: saline): 2 of 6 | survivor count (dose: 800.0 mg/kg/injection, schedule: Q01DX001 (ip), vehicle: saline): 0 of 6 | survivor count (dose: 1000.0 mg/kg/injection, schedule: Q01DX001 (ip), vehicle: saline): 0 of 6 | survivor count (dose: 1200.0 mg/kg/injection, schedule: Q01DX001 (ip), vehicle: saline): 0 of 6
